Experimental data taken from PubChem BioAssay AID1671190 (National Center for Advancing Translational Sciences (NCATS), 2021).
“And” between values parts separate entries of the source, which are not always exact repeats. Identical values can stand only once. About 6,100 (1.1%) of roughly 580,000 compounds were called active. The shares of active, inactive and inconclusive entries below differ from those in the screen. Calls follow the shape of the dose curve; as a rule, active = well fitted inhibition curve with a large enough effect; inconclusive = small, poorly fitted or top-dose-only effect, or another doubt; inactive = no such curve, though single readings can be large or run the other way. Where the call is inconclusive, the potency comes from a doubtful curve fit.

The chains behind the UniProt entries cited, without tags or fusion partners. Where a name states a change or a piece, a line headed by the entry shows the natural chain unless it says otherwise.
UniProt P18054: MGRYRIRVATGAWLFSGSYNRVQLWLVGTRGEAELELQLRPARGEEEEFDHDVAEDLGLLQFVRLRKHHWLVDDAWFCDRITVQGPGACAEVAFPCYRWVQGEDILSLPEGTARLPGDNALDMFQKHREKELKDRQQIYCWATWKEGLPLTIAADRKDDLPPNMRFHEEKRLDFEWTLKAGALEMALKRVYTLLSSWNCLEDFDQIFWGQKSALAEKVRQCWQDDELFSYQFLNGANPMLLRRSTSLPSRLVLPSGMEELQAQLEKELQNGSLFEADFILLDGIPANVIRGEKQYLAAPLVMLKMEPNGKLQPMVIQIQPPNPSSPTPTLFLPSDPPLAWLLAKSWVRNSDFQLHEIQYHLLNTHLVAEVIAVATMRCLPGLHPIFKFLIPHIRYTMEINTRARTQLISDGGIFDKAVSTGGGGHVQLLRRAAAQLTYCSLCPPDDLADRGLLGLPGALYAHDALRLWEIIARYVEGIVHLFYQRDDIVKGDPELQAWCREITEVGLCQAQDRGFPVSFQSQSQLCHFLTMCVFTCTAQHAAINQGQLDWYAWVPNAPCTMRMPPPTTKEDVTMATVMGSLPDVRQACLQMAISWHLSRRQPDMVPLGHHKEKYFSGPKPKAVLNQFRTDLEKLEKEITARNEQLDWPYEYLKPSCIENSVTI

molecular target: Polyunsaturated fatty acid lipoxygenase ALOX12 (Homo sapiens) (UniProt P18054); assay: Primary qHTS assay for inhibitors of human arachidonate 12S-lipoxygenase (ALOX12): Round 2; details: purified 12hLO, xylenol orange hydroperoxide absorbance; activity change, negative = inhibition: at 108 µM (top of the series) unless noted
Outline: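 Purified human 12hLO (150 nM final) in 25 mM Hepes, 0.01% Triton X-100, pH 7.0 was preincubated 15 min at room temperature with compound. Then 40 uM arachidonic acid was added, 30 min. Hydroperoxide was read by Fe-XO absorbance ratio 573/405 nm.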
% is scaled to controls: 0 for no effect and ±100 for the full control effect; potency is read from the fitted curve at half-maximal effect.

SMILES	Potency	activity change, negative = inhibition
CC1(C)[C@H](Cc2cc(-c3ccc(F)cc3)on2)C[C@@H]1NCc1cccnc1	inactive	–
CCOC(=O)c1cc(-c2ccc(/C=C3/C(=O)NC(=O)C(C#N)=C3C)o2)ccc1Cl	inconclusive: 31.6 µM [inhibitor, partial curve]	–
O=C1NC(Cc2ccc(O)cc2)c2nc3cc(F)c(F)cc3c(=O)n2-c2ncccc21 (stereo not given)	inactive	–
CCc1ccc(OC(=O)c2ccccc2I)cc1	inactive	–
O=C(CSc1ccc(-c2ccco2)nn1)Nc1ccc(F)cc1	inconclusive: 89.1 µM [inhibitor, partial curve, poor fit]	–
Cc1nn(C)c2sc(C(=O)NCc3ccccc3)cc12	inactive	–
CN(C)CCN(CC1CCCN(Cc2ccccc2F)C1)C(=O)c1ccc(F)cc1 (stereo not given)	inactive	–
CC1(C)Cc2c(c(N3CCOCC3)nc3sc(-c4ccc(C(=O)O)o4)c(N)c23)CO1	inconclusive: 25.1 µM [inhibitor, single point]	–
Cc1ccc(C(=O)CC(=O)c2ccc(C)c(C)c2)cc1C	inconclusive: 1.41 µM [inhibitor, full curve, poor fit]	–
Oc1cc2c(cc1C(c1ccc(Br)cc1)N1CCCC1)OCO2 (stereo not given)	active: 11.2 µM	–
COc1cccc(NS(=O)(=O)c2cc(-c3cnc(C)o3)ccc2C)c1	inconclusive: 50.1 µM [inhibitor, partial curve, poor fit]	–
O=C(c1nc(-c2cccc3[nH]ccc23)no1)N1CCCCC1	inconclusive: 50.1 µM [inhibitor, partial curve, poor fit]	–
O=C(NCCc1cccs1)C1CC1	inconclusive: 112 µM [inhibitor, partial curve, poor fit]	–
CC(N1CCOC1=O)S(=O)(=O)c1ccccc1 (stereo not given)	active: 35.5 µM	–
CCOC(=O)COn1c(=O)c(=O)n(O)c2ccccc21	inconclusive: 5.01 µM [inhibitor, full curve, poor fit]	–
Cc1csc2nc(COC(=O)c3ccc(NC(=O)C(C)Oc4ccccc4)cc3)cc(=O)n12 (stereo not given)	inconclusive: 70.8 µM [inhibitor, partial curve, poor fit]	–
O=C(Cc1ccccc1)Nc1ccccc1C(=O)N1CCN(c2ccccc2)CC1	inconclusive: 79.4 µM [inhibitor, partial curve, poor fit]	–
Cn1nnnc1SCC(=O)N1N=C(c2ccc(Cl)cc2)CC1c1ccco1 (stereo not given)	inconclusive: 79.4 µM [inhibitor, partial curve, poor fit]	–
COc1cc2c(cc1OC)C(C)N(C(=O)c1c(-c3ccccc3)noc1C)CC2 (stereo not given)	inconclusive: 112 µM [inhibitor, single point]	–
CCSC(=O)NC1CCCCC1	inconclusive: 112 µM [inhibitor, partial curve, poor fit]	–
COc1ccc(S(=O)(=O)Nc2ccc(Cc3ccncc3)cc2)cc1OC	–	inconclusive: -30.6% [inhibitor]

SMILES	Potency	activity change, negative = inhibition
CCc1sc(C(=O)NC(C)C2CCCO2)cc1Br (stereo not given)	inconclusive: 100 µM [inhibitor, partial curve, poor fit]	–
CC(C)(C)NC(=O)CC1(C(=O)N2CCC(c3c[nH]c4ccccc34)CC2)CCCC1	inconclusive: 100 µM [inhibitor, single point]	–
COc1ccc(CN2CCN(C(c3ccc(F)cc3)c3ccc(F)cc3)CC2)c(OC)c1OC	inconclusive: 28.2 µM [inhibitor, partial curve]	–
CCN1C(=NCC2CC2)N[C@@H](c2ccccc2)C(C(=O)OC)=C1C	inconclusive: 50.1 µM [inhibitor, partial curve, poor fit]	–
CCn1cc(C(=O)NCCO)c(=O)c2cc(F)c(N3CCN(C)CC3)cc21	inconclusive: 35.5 µM [inhibitor, single point]	–
O=C(/C=C/c1ccc(F)cc1)NCCCCc1ccccc1	inactive	–
CCN=c1scc(-c2ccco2)n1/N=C/c1ccc(O)cc1	inconclusive: 35.5 µM [inhibitor, partial curve, poor fit]	–
COCCSc1ccccc1C(=O)Nc1nccs1	active: 14.1 µM	–
C[C@H](CO)N1C[C@H](C)[C@@H](CN(C)C(=O)c2cccc(F)c2)Oc2cc(-c3cncnc3)ccc2S1(=O)=O	inconclusive: 44.7 µM [inhibitor, partial curve, poor fit]	–
CC(C)(C)n1cn[nH]c1=S	inconclusive: 35.5 µM [inhibitor, full curve, poor fit]	–
O=S(=O)(Nc1ccc2c(c1)OCCO2)c1ccc(Br)s1	inconclusive: 100 µM [inhibitor, single point]	–
O=C(Nc1ccc2oc(=O)ccc2c1)c1ccccc1	inactive	–
CC1CCCN(c2nc3c(c(=O)n(C)c(=O)n3C)n2CC(=O)O)C1 (stereo not given)	inactive	–
N/C(=N\OS(=O)(=O)c1ccc2ccccc2c1)c1ccncc1	inconclusive: 44.7 µM [inhibitor, partial curve, poor fit]	–
CC(=O)c1c(C)[nH]c(C(=O)Nc2ccc(N3CCCCCC3)cc2)c1C	inconclusive: 70.8 µM [inhibitor, partial curve, poor fit]	–
CC(=O)NCCNc1ncnc2ccc(-c3ccc4c(c3)OCO4)cc12	inactive	–
Cc1c(Cl)cccc1NC(=O)Cn1cc(C#N)c2ccccc21	inconclusive: 126 µM [inhibitor, partial curve, poor fit]	–
Cc1ccccc1NC(NC(=O)c1cccnc1)C(Cl)(Cl)Cl (stereo not given)	inactive	–
O=c1cc(-c2ccccc2)n(S(=O)(=O)c2ccc3ccccc3c2)o1	inconclusive: 5.01 µM [inhibitor, full curve, poor fit]	–
O=Cc1cc(O)ccc1Br	inconclusive: 112 µM [inhibitor, single point]	–
CCN(CC)C(=O)[C@@H](C)C1CC[C@@]2(C)Cc3sc(Nc4c(Cl)cccc4Cl)nc3[C@@H](C)[C@@H]2[C@H]1O (stereo not given in full)	inconclusive: 50.1 µM [inhibitor, partial curve]	–
Cc1ccc(NC(=O)CSc2ccccc2NC(=O)c2ccccc2)cc1Cl	inconclusive: 8.91 µM [inhibitor, full curve, poor fit]	–

SMILES	Potency	activity change, negative = inhibition
O=C(C1CCN(S(=O)(=O)c2cccs2)CC1)N(c1ccccn1)C1CCCCC1	inconclusive: 35.5 µM [inhibitor, partial curve, poor fit]	–
CCOC(=O)C1(CCOc2ccccc2)CCN(Cc2ccc(O)c(OC)c2)CC1	inconclusive: 35.5 µM [inhibitor, partial curve, poor fit]	–
Cc1ccc2nc(-c3ccccn3)c(Nc3ccccc3C)n2c1	inactive	–
C=CCn1c(-c2ccc(F)cc2)n[nH]c1=S	inconclusive: 50.1 µM [inhibitor, partial curve, poor fit]	–
O=C(Nc1ccccc1F)N1CC2CCC(C1)N2Cc1ccc(Cl)cc1	inconclusive: 35.5 µM [inhibitor, partial curve, poor fit]	–
CC(C)c1ccc2oc(-c3cc(N)ccc3O)nc2c1	inconclusive: 44.7 µM [inhibitor, partial curve, poor fit] and inconclusive: 79.4 µM [inhibitor, partial curve, poor fit]	–
Brc1ccccc1CN1CCN(Cc2c[nH]c3ccccc23)CC1	inconclusive: 0.398 µM [inhibitor, full curve, poor fit]	–
CCOc1cc(N2CCOCC2)c(OCC)cc1NC(=O)CN1CCc2ccccc2C1	inconclusive: 0.501 µM [inhibitor, full curve, poor fit]	–
COc1ccc(CN[C@H]2[C@H](O)[C@H](O)C[C@@H]2c2ccc(N3CCOCC3)nc2)cn1	inactive	–
O=[N+]([O-])c1ncn(C23CC4CC(CC(C4)C2)C3)n1	inconclusive: 112 µM [inhibitor, partial curve, poor fit]	–
Cc1ccc2c(CC(=O)OC3CCOC3=O)coc2c1 (stereo not given)	inconclusive: 112 µM [inhibitor, single point]	–
COc1ccc(S(=O)(=O)N2CCOCC2)cc1NC(=O)Cc1c(Cl)cccc1Cl	inactive	–
CCc1nc2sc3c(O)cc(=O)[nH]c3c2cc1C	inconclusive: 0.562 µM [inhibitor, full curve, poor fit]	–
Cc1c(NC(=O)/C(C#N)=C/c2ccc(-c3cccc(Cl)c3)o2)c(=O)n(-c2ccccc2)n1C	inconclusive: 10 µM [inhibitor, partial curve, poor fit]	–
CCOC(=O)CCCCCC(=O)Nc1ccc2c(c1)C(=O)N([C@H](C)CO)C[C@@H](C)[C@H](CN(C)Cc1ccc3c(c1)OCO3)O2	inconclusive: 79.4 µM [inhibitor, partial curve, poor fit]	–
CCC(CO)NCC(O)COCc1ccc2c(c1)OCO2 (stereo not given)	inconclusive: 0.631 µM [inhibitor, full curve, poor fit]	–
O=C(NCc1ccc(N2CCCCC2)cc1)c1cccc2c1CCN2C(=O)C1CC1	inconclusive: 79.4 µM [inhibitor, partial curve]	–
COC(=O)[C@@]12CCCN1[C@H](c1ccc(-c3ccc(OC)cc3)c(OC)c1)[C@@H]1C(=O)N(C)C(=O)[C@@H]12	inactive	–
O=S(=O)(Nc1ncnc2sc3c(c12)CCC3)c1ccc(Cl)s1	inconclusive: 12.6 µM [inhibitor, partial curve, poor fit]	–
CCOc1ccc(CN(C)C(C)C(=O)NCc2ccccc2)cc1 (stereo not given)	inactive	–
Cc1ccc(CN2CCN(C(=O)CCC(=O)Nc3nnc(C(C)C)s3)CC2)c(C)c1	inactive	–
